According to article PMC10617613:
These are yes or no findings as the source states them, for the method shown. In cells and extracts the contact can be indirect. Some entries that bind do so weakly or less than the wild type.

The chains behind the UniProt entries cited, without tags or fusion partners.
UniProt P08670: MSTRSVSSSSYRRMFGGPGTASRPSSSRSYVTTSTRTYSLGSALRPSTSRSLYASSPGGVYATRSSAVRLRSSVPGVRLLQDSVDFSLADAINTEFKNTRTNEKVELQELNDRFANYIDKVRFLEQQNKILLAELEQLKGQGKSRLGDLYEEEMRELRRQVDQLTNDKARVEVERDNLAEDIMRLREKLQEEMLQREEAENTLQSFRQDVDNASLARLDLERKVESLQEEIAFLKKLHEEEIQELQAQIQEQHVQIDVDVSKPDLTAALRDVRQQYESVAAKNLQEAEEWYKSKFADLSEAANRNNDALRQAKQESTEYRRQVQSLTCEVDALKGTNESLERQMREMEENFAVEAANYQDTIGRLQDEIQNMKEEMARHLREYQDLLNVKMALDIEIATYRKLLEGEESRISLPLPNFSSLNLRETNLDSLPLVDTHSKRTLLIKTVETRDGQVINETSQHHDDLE

Biological target: Vimentin (human (endogenous in HeLaM and human dermal fibroblasts)) (UniProt P08670)
Assay: proximity ligation; Duolink in situ PLA on fixed, permeabilised human dermal fibroblasts with anti-GORAB and anti-vimentin primary antibodies; controls were GORAB-deficient GO fibroblasts and omission of antibodies

binding: binds
B1: GORAB (protein, UniProt Q5T7V8 1-369)
chain: MAQGWAGFSEEELRRLKQTKDPFEPQRRLPAKKSRQQLQREKALVEQSQKLGLQDGSTSLLPEQLLSAPKQRVNVQKPPFSSPTLPSHFTLTSPVGDGQPQGIESQPKELGLENSHDGHNNVEILPPKPDCKLEKKKVELQEKSRWEVLQQEQRLMEEKNKRKKALLAKAIAERSKRTQAETMKLKRIQKELQALDDMVSADIGILRNRIDQASLDYSYARKRFDRAEAEYIAAKLDIQRKTEIKEQLTEHLCTIIQQNELRKAKKLEELMQQLDVEADEETLELEVEVERLLHEQEVESRRPVVRLERPFQPAEESVTLEFAKENRKCQEQAVSPKVDDQCGNSSSIPFLSPNCPNQEGNDISAALAT
